Source: US10857137B2, “Methods for the administration of certain VMAT2 inhibitors” (Neurocrine Biosciences, Inc., priority 2017, dated 2020)
Some of these results come from one statement about several compounds together.

Test system: more than 80 targets including GPCRs, cell-surface monoamine transporters, and ion channels including HERG
Experiment: Multi-target activity screen (Cerep screen), whole panel
Format: binding
Conditions: concentrations of 1-10 μM; any of more than 80 targets

Row | Compound | inhibition of binding of cognate ligands to any of the targets
1 | COc1cc2c(cc1OC)[C@H]1C[C@@H](O)[C@H](CC(C)C)CN1CC2 [R,R,R-DHTBZ, (2R,3R,11bR)-3-isobutyl-9,10-dimethoxy-1,3,4,6,7,11b-hexahydro-2H-pyrido[2,1-a]isoquinolin-2-ol] | ≤ 50%
2 | COc1cc2c(cc1OC)[C@H]1C[C@@H](OC(=O)[C@@H](N)C(C)C)[C@H](CC(C)C)CN1CC2 [Valbenazine, (S)-2-amino-3-methyl-butyric acid (2R,3R,11bR)-3-isobutyl-9,10-dimethoxy-1,3,4,6,7,11b-hexahydro-2H-pyrido[2,1-a]isoquinolin-2-yl ester] | ≤ 50%
3 | COc1cc2c(cc1OC)[C@H]1C[C@@H](OC(=O)[C@@H](N)C(C)(C)O)[C@H](CC(C)C)CN1CC2 [NBI-136110] | ≤ 50%

Same assay, conditions: receptor subtypes including serotonin, dopamine and adrenergic receptors; 1 or 10 μM

Row | Compound | inhibition of ligand binding to a number of receptor subtypes
4 | COc1cc2c(cc1OC)[C@H]1C[C@H](O)[C@H](CC(C)C)CN1CC2 [S,R,R-DHTBZ, reference compound] | more than 50%
5 | COc1cc2c(cc1OC)[C@@H]1C[C@H](O)[C@@H](CC(C)C)CN1CC2 [S,S,S-DHTBZ, reference compound] | more than 50%
6 | COc1cc2c(cc1OC)[C@@H]1C[C@@H](O)[C@@H](CC(C)C)CN1CC2 [R,S,S-DHTBZ, reference compound] | more than 50%
